Among the data in publication PMC11527346 are binding values, retold here.

Chains of the proteins cited; added tags and fusions are not shown.
UniProt Q04207: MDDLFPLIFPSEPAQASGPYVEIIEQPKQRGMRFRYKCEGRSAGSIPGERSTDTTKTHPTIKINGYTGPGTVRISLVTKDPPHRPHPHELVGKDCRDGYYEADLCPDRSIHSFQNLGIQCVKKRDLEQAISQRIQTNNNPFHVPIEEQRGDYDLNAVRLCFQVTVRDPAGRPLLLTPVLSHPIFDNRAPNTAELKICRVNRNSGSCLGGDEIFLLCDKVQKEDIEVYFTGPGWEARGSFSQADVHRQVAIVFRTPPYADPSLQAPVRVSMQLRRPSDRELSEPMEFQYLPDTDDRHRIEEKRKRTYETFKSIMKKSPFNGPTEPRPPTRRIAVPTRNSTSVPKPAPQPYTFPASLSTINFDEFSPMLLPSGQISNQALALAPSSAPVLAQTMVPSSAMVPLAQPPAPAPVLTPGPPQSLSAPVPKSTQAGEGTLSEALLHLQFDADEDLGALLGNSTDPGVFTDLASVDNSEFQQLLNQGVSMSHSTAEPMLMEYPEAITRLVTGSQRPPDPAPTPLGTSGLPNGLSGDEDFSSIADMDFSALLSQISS
UniProt P15531: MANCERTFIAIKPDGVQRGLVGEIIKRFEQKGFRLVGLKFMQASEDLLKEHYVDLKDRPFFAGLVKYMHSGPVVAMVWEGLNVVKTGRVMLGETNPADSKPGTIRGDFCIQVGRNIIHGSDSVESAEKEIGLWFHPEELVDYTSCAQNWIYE
UniProt P14136: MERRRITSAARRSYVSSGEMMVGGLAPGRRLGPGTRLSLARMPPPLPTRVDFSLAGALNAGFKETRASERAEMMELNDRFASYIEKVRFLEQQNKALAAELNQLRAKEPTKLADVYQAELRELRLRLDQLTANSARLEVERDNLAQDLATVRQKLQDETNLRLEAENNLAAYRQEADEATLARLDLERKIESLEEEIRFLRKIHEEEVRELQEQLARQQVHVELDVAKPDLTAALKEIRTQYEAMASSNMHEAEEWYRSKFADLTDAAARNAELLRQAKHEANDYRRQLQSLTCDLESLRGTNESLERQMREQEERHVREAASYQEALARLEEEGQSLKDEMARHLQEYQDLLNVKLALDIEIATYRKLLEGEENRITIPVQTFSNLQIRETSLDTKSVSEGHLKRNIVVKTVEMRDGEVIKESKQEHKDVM
UniProt Q13191: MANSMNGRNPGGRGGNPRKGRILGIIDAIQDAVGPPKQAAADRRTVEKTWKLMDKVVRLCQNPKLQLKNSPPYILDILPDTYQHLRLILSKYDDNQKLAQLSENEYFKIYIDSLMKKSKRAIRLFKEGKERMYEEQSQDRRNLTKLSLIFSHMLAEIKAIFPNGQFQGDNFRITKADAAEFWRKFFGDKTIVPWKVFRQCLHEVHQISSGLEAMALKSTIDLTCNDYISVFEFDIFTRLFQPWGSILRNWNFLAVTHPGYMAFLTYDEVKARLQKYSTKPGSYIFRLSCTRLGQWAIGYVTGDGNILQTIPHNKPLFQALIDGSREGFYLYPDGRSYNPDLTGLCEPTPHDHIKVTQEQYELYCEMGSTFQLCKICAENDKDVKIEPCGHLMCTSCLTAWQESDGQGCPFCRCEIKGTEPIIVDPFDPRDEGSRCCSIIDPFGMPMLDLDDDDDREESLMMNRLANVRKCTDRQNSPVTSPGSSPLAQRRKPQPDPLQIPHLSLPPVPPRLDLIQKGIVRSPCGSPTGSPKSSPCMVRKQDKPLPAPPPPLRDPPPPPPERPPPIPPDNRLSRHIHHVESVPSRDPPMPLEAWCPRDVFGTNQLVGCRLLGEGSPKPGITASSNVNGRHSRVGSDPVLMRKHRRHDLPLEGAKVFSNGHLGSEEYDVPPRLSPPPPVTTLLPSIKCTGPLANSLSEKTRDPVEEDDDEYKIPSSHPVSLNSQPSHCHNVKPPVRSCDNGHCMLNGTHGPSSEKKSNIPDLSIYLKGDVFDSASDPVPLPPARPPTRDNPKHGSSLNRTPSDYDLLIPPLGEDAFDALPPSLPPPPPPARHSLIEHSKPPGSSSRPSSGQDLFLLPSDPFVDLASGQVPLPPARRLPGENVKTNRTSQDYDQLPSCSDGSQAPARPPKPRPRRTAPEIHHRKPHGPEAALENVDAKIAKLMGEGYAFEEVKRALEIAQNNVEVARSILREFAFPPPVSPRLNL

Results are given in words; binding and its absence hold for the method and conditions named. Binding seen in cells or lysates may run through a third protein. Here binding means that the protein was enriched with, or labelled near, the bait; the list need not be complete.

First the molecules themselves.
B1: UPF3A (protein, UniProt Q9H1J1 1-476)
chain: MRSEKEGAGGLRAAVAARGPSGREKLSALEVQFHRDSQQQEAETPPTSSSGCGGGAGKPREEKRTALSKVVIRRLPPGLTKEQLEEQLRPLPAHDYFEFFAADLSLYPHLYSRAYINFRNPDDILLFRDRFDGYIFLDSKGLEYPAVVEFAPFQKIAKKKLRKKDAKTGSIEDDPEYKKFLETYCVEEEKTSANPETLLGEMEAKTRELIARRTTPLLEYIKNRKLEKQRIREEKREERRRRELEKKRLREEEKRRRREEERCKKKETDKQKKIAEKEVRIKLLKKPEKGEEPTTEKPKERGEEIDTGGGKQESCAPGAVVKARPMEGSLEEPQETSHSGSDKEHRDVERSQEQESEAQRYHVDDGRRHRAHHEPERLSRRSEDEQRWGKGPGQDRGKKGSQDSGAPGEAMERLGRAQRCDDSPAPRKERLANKDRPALQLYDPGARFRARECGGNRRICKAEGSGTGPEKREEAE
B2: TONSL (protein, UniProt Q96HA7 1-1378)
chain: MSLERELRQLSKAKAKAQRAGQRREEAALCHQLGELLAGHGRYAEALEQHWQELQLRERADDPLGCAVAHRKIGERLAEMEDYPAALQHQHQYLELAHSLRNHTELQRAWATIGRTHLDIYDHCQSRDALLQAQAAFEKSLAIVDEELEGTLAQGELNEMRTRLYLNLGLTFESLQQTALCNDYFRKSIFLAEQNHLYEDLFRARYNLGTIHWRAGQHSQAMRCLEGARECAHTMRKRFMESECCVVIAQVLQDLGDFLAAKRALKKAYRLGSQKPVQRAAICQNLQHVLAVVRLQQQLEEAEGRDPQGAMVICEQLGDLFSKAGDFPRAAEAYQKQLRFAELLDRPGAERAIIHVSLATTLGDMKDHHGAVRHYEEELRLRSGNVLEEAKTWLNIALSREEAGDAYELLAPCFQKALSCAQQAQRPQLQRQVLQHLHTVQLRLQPQEAPETETRLRELSVAEDEDEEEEAEEAAATAESEALEAGEVELSEGEDDTDGLTPQLEEDEELQGHLGRRKGSKWNRRNDMGETLLHRACIEGQLRRVQDLVRQGHPLNPRDYCGWTPLHEACNYGHLEIVRFLLDHGAAVDDPGGQGCEGITPLHDALNCGHFEVAELLLERGASVTLRTRKGLSPLETLQQWVKLYRRDLDLETRQKARAMEMLLQAAASGQDPHSSQAFHTPSSLLFDPETSPPLSPCPEPPSNSTRLPEASQAHVRVSPGQAAPAMARPRRSRHGPASSSSSSEGEDSAGPARPSQKRPRCSATAQRVAAWTPGPASNREAATASTSRAAYQAAIRGVGSAQSRLGPGPPRGHSKALAPQAALIPEEECLAGDWLELDMPLTRSRRPRPRGTGDNRRPSSTSGSDSEESRPRARAKQVRLTCMQSCSAPVNAGPSSLASEPPGSPSTPRVSEPSGDSSAAGQPLGPAPPPPIRVRVQVQDHLFLIPVPHSSDTHSVAWLAEQAAQRYYQTCGLLPRLTLRKEGALLAPQDLIPDVLQSNDEVLAEVTSWDLPPLTDRYRRACQSLGQGEHQQVLQAVELQGLGLSFSACSLALDQAQLTPLLRALKLHTALRELRLAGNRLGDKCVAELVAALGTMPSLALLDLSSNHLGPEGLRQLAMGLPGQATLQSLEELDLSMNPLGDGCGQSLASLLHACPLLSTLRLQACGFGPSFFLSHQTALGSAFQDAEHLKTLSLSYNALGAPALARTLQSLPAGTLLHLELSSVAAGKGDSDLMEPVFRYLAKEGCALAHLTLSANHLGDKAVRDLCRCLSLCPSLISLDLSANPEISCASLEELLSTLQKRPQGLSFLGLSGCAVQGPLGLGLWDKIAAQLRELQLCSRRLCAEDRDALRQLQPSRPGPGECTLDHGSKLFFRRL
B3: DENND2A (protein, UniProt Q9ULE3 1-1009)
chain: MDMFSLDMIISDPAAEASRAGKKQLRGVQNPCPSARARPRHKSLNIKDKISEWEGKKEVPTPAPSRRADGQEDYLPSSTVERRSSDGVRTQVTEAKNGMRPGTESTEKERNKGAVNVGGQDPEPGQDLSQPEREVDPSWGRGREPRLGKLRFQNDPLSVLKQVKKLEQALKDGSAGLDPQLPGTCYSPHCPPDKAEAGSTLPENLGGGSGSEVSQRVHPSDLEGREPTPELVEDRKGSCRRPWDRSLENVYRGSEGSPTKPFINPLPKPRRTFKHAGEGDKDGKPGIGFRKEKRNLPPLPSLPPPPLPSSPPPSSVNRRLWTGRQKSSADHRKSYEFEDLLQSSSESSRVDWYAQTKLGLTRTLSEENVYEDILDPPMKENPYEDIELHGRCLGKKCVLNFPASPTSSIPDTLTKQSLSKPAFFRQNSERRNFKLLDTRKLSRDGTGSPSKISPPSTPSSPDDIFFNLGDPQNGRKKRKIPKLVLRINAIYEVRRGKKRVKRLSQSMESNSGKVTDENSESDSDTEEKLKAHSQRLVNVKSRLKQAPRYPSLARELIEYQERQLFEYFVVVSLHKKQAGAAYVPELTQQFPLKLERSFKFMREAEDQLKAIPQFCFPDAKDWVPVQQFTSETFSFVLTGEDGSRRFGYCRRLLPGGKGKRLPEVYCIVSRLGCFSLFSRILDEVEKRRGISPALVQPLMRSVMEAPFPALGKTILVKNFLPGSGTEVIELCRPLDSRLEHVDFESLFSSLSVRHLVCVFASLLLERRVIFIADKLSILSKCCHAMVALIYPFAWQHTYIPVLPPAMVDIVCSPTPFLIGLLSSSLPLLRELPLEEVLVVDLVNSRFLRQMDDEDSILPRKLQVALEHILEQRNELACEQDEGPLDGRHGPESSPLNEVVSEAFVRFFVEIVGHYSLFLTSGEREERTLQREAFRKAVSSKSLRHFLEVFMETQMFRGFIQERELRRQDAKGLFEVRAQEYLETLPSGEHSGVNKFLKGLGNKMKFLHKK

This experiment addresses His-tagged full-length RelA (UniProt Q04207). Description: affinity purification with mass spectrometry; biotinylated IFNb-κB DNA on streptavidin agarose beads with 100 ng recombinant full-length RelA and Mono Q fraction Q23 of unstimulated HeLa nuclear extract; control without RelA; 25 mM Tris-HCl pH 7.5, 150 mM NaCl, 5% glycerol, 1 mM DTT; overnight at 4°C; LC-MS; only the target purified.
Take “NME1 (nucleoside diphosphate kinase 1) (from UniProt P15531 1-152)”: the binding entry was “binds”.

GFAP (from UniProt P14136 1-432): the binding entry is “binds”.

Turning to CBLB (from UniProt Q13191 1-982), the binding entry is reported as “binds”.

As for B1, the binding result is given as “binds”.

As for B2, the binding entry is given as “binds”.

B3: the binding result was “binds”.
